Test results from patent publication US20210395340A1 (KINDRED BIOSCIENCES, published 2021).
These are yes or no findings as the source states them, for the method shown. Some binding calls cover weakened binding; strength is not graded here. Where a sequence is shown, tags or fusion partners need not be part of it.

T1: canine IL4 with C-terminal poly-His tag (produced in 293 cells) (canine) (UniProt O77762)
T1 sequence: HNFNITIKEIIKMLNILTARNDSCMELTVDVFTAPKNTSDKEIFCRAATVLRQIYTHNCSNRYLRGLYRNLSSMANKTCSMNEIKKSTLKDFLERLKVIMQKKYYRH


Columns and labels:
[1] = molecular target: T1, canine IL4 with C-terminal poly-His tag (produced in 293 cells) (canine); assay: BLI (Octet)
[2] = molecular target: T1, canine IL4 with C-terminal poly-His tag (produced in 293 cells) (canine); assay: BLI sequential binding, biotinylated fusion on streptavidin tips, ligands at 30 ug/mL in PBS

| Binder | binding [1] | binding [2] |
| --- | --- | --- |
| canine IL4RECD-IL13RECD-IgGB Fc (Fc fusion, The IL4R ECD precedes the IL13R ECD, followed by canine IgG-B Fc; also called canine IL4RECD-IL13RECD-Fc; SINK) SGSVKVLHEPSCFSDYISTSVCQWKMDHPTNCSAELRLSYQLDFMGSENHTCVPENREDSVCVCSMPIDDAVEADVYQLDLWAGQQLLWSGSFQPSKHVKPRTPGNLTVHPNISHTWLLMWTNPYPTENHLHSELTYMVNVSNDNDPEDFKVYNVTYMGPTLRLAASTLKSGASYSARVRAWAQTYNSTWSDWSPSTTWLNYYEPGGGSGTETQPPVTNLSVSVENLCTVIWTWDPPEGASPNCTLRYFSHFDNKQDKKIAPETHRSKEVPLNERICLQVGSQCSTNESDNPSILVEKCTPPPEGDPESAVTELQCVWHNLSYMKCTWLPGRNTSPDTNYTLYYWHSSLGKILQCEDIYREGQHIGCSFALTNLKDSSFEQHSVQIVVKDNAGKIRPSFNIVPLTSHVKPDPPHIKRLFFQNGNLYVQWKNPQNFYSRCLSYQVEVNNSQTETNDIFYVEEAKCQNSEFEGNLEGTICFMVPGVLPDTLNTVRIRVRTNKLCYEDDKLWSNWSQAMSIGENTDPTPKRENGRVPRPPDCPKCPAPEMLGGPSVFIFPPKPKDTLLIARTPEVTCVVVDLDPEDPEVQISWFVDGKQMQTAKTQPREEQFNGTYRVVSVLPIGHQDWLKGKQFTCKVNNKALPSPIERTISKARGQAHQPSVYVLPPSREELSKNTVSLTCLIKDFFPPDIDVEWQSNGQQEPESKYRTTPPQLDEDGSYFLYSKLSVDKSRWQRGDTFICAVMHEALHNHYTQESLSHSPGK | binds | binds |
| canine IL13RECD-IL4RECD-IgGB Fc (Fc fusion, also called canine IL13RECD-IL4RECD-Fc; IL13R ECD/IL4R ECD contiguous polypeptide) TETQPPVTNLSVSVENLCTVIWTWDPPEGASPNCTLRYFSHFDNKQDKKIAPETHRSKEVPLNERICLQVGSQCSTNESDNPSILVEKCTPPPEGDPESAVTELQCVWHNLSYMKCTWLPGRNTSPDTNYTLYYWHSSLGKILQCEDIYREGQHIGCSFALTNLKDSSFEQHSVQIVVKDNAGKIRPSFNIVPLTSHVKPDPPHIKRLFFQNGNLYVQWKNPQNFYSRCLSYQVEVNNSQTETNDIFYVEEAKCQNSEFEGNLEGTICFMVPGVLPDTLNTVRIRVRTNKLCYEDDKLWSNWSQAMSIGENTDPTGGGSGSGSVKVLHEPSCFSDYISTSVCQWKMDHPTNCSAELRLSYQLDFMGSENHTCVPENREDSVCVCSMPIDDAVEADVYQLDLWAGQQLLWSGSFQPSKHVKPRTPGNLTVHPNISHTWLLMWTNPYPTENHLHSELTYMVNVSNDNDPEDFKVYNVTYMGPTLRLAASTLKSGASYSARVRAWAQTYNSTWSDWSPSTTWLNYYEPKRENGRVPRPPDCPKCPAPEMLGGPSVFIFPPKPKDTLLIARTPEVTCVVVDLDPEDPEVQISWFVDGKQMQTAKTQPREEQFNGTYRVVSVLPIGHQDWLKGKQFTCKVNNKALPSPIERTISKARGQAHQPSVYVLPPSREELSKNTVSLTCLIKDFFPPDIDVEWQSNGQQEPESKYRTTPPQLDEDGSYFLYSKLSVDKSRWQRGDTFICAVMHEALHNHYTQESLSHSPGK | binds | binds |
